We go through 27 targets from the supplement of paper PMC6411743.

Amino acid sequences for entries named in this document (tags omitted). A change or cut given only in a name is not applied to a line headed by its entry.
UniProt Q6IBW4: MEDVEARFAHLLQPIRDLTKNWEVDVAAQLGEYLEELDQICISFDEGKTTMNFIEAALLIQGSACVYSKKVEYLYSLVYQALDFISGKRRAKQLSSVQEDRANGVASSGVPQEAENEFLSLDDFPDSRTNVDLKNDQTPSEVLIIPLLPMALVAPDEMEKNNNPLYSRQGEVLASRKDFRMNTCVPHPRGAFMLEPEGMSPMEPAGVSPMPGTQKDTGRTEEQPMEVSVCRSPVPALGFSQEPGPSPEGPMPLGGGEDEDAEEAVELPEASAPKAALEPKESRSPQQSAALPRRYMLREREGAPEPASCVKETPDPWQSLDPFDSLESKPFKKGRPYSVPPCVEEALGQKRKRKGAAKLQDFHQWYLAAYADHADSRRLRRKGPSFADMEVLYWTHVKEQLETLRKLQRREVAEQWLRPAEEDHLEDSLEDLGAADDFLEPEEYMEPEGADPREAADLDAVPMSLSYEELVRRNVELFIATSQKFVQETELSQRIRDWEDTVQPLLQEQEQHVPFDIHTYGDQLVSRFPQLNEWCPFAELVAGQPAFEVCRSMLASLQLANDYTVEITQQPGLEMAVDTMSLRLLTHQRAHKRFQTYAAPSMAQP
UniProt A8CG34, whole entry, looked up: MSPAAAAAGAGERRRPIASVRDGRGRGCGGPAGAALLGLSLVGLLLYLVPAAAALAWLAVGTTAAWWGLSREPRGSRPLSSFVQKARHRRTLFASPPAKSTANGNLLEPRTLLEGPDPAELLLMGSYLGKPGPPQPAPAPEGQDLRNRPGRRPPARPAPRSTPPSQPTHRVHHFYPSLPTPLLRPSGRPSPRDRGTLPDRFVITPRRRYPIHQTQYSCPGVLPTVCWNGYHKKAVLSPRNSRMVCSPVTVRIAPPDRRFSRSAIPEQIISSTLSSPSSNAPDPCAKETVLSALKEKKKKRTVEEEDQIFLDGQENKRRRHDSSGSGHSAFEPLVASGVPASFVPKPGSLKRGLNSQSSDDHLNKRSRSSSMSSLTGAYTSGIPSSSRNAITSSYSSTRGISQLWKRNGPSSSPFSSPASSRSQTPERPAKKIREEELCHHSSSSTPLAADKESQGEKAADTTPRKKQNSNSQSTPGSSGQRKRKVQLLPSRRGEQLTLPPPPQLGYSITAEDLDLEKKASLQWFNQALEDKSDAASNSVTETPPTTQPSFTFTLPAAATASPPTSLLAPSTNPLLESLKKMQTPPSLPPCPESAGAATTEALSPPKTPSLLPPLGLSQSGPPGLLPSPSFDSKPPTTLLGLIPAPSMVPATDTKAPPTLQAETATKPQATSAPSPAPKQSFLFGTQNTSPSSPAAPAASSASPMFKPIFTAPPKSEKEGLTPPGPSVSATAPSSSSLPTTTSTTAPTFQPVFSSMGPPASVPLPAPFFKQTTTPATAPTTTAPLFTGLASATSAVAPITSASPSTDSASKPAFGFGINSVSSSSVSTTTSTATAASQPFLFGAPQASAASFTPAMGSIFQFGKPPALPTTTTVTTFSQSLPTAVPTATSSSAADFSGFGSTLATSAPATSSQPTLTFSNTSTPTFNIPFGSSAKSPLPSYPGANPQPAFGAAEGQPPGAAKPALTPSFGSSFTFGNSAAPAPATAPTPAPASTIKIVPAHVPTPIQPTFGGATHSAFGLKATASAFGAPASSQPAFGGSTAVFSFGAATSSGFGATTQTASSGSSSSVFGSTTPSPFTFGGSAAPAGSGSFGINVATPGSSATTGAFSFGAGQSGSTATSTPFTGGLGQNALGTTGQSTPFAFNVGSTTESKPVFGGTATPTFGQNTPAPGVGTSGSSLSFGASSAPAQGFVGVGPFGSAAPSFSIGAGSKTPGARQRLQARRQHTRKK
UniProt P54252: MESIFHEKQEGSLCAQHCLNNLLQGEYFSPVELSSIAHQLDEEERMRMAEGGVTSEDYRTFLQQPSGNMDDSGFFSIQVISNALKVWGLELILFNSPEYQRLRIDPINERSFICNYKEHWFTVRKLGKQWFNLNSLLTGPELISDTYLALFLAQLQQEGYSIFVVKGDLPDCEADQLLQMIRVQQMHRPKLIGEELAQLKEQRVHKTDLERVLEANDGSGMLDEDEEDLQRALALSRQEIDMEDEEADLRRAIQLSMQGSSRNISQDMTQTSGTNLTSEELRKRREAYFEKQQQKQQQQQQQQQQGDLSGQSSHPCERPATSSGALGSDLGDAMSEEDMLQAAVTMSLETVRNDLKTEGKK
UniProt O43837: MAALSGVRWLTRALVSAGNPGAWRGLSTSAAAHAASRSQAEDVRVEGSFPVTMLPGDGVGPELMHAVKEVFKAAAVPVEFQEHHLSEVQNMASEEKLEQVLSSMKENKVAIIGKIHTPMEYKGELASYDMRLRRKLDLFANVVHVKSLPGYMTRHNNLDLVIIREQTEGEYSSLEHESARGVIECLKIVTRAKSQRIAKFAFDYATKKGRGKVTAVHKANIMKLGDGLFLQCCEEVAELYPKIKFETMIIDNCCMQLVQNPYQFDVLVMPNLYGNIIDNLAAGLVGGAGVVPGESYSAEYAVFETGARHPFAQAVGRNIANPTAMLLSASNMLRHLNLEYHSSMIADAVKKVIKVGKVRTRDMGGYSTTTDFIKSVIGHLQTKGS
UniProt Q9NQ55: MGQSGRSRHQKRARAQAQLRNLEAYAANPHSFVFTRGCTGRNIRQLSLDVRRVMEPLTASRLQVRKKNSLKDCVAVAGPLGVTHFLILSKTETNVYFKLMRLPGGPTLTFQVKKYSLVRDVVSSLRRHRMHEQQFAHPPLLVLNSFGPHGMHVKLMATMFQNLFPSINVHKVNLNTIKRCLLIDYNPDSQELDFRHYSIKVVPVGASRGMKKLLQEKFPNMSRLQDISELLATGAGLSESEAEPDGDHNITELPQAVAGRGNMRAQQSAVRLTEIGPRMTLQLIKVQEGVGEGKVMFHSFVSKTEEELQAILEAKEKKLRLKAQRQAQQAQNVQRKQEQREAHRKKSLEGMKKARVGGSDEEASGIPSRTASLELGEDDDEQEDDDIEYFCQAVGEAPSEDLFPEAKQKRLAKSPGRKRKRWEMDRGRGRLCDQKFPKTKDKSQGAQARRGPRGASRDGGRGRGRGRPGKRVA
UniProt Q6PIU2: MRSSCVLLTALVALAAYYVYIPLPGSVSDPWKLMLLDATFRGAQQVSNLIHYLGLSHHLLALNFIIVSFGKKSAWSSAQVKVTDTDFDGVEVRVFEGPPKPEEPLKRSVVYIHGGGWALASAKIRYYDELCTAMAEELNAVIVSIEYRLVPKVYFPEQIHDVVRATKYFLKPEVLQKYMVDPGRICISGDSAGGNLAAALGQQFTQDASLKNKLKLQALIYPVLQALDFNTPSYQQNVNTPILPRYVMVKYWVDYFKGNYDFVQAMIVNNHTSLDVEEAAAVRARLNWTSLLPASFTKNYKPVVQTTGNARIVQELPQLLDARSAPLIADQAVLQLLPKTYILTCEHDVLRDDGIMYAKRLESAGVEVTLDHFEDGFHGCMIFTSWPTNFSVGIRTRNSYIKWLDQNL
UniProt Q9UMY4: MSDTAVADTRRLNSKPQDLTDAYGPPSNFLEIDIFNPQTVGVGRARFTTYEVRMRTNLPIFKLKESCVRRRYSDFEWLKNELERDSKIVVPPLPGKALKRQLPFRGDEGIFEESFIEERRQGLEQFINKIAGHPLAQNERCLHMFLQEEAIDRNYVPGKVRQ
UniProt Q15334: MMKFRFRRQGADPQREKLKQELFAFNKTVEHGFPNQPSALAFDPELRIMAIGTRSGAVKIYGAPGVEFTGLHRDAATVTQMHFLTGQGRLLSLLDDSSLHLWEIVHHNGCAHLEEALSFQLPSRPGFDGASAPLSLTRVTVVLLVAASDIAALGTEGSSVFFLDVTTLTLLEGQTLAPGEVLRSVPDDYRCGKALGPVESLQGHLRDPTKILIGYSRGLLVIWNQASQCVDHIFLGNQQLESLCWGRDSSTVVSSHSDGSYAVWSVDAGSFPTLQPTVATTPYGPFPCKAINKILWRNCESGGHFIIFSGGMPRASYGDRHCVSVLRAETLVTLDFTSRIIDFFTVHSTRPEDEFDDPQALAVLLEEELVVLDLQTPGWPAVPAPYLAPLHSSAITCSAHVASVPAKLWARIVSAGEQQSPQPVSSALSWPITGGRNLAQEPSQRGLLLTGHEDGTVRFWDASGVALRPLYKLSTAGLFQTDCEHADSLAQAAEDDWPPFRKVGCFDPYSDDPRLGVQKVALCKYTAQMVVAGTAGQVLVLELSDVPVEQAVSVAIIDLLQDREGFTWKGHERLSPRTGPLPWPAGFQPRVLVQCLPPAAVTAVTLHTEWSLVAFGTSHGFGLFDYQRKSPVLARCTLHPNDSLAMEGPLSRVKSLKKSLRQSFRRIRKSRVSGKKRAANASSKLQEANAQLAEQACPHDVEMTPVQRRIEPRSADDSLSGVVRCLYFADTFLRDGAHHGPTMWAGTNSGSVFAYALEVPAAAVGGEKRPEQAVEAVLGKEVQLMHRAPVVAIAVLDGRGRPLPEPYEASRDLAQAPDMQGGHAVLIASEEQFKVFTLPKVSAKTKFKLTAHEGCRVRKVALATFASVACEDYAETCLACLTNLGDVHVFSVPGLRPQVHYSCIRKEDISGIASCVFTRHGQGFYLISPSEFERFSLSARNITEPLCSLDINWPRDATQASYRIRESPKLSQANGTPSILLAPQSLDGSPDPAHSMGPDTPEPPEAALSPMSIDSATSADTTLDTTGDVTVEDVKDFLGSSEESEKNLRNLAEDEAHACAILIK
UniProt Q8IZQ5, whole entry, looked up: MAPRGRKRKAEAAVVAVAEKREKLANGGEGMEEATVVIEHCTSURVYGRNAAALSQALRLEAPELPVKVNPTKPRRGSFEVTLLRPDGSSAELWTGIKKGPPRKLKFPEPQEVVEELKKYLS
UniProt Q99836, whole entry: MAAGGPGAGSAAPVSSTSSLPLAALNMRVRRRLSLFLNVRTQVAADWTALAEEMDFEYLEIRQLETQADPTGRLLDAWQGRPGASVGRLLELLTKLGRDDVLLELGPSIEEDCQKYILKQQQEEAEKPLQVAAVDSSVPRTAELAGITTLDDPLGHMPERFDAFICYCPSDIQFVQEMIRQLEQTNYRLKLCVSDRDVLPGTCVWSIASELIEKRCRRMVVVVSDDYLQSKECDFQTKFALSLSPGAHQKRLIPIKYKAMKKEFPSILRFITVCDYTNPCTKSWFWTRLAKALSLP
UniProt C4AMC7: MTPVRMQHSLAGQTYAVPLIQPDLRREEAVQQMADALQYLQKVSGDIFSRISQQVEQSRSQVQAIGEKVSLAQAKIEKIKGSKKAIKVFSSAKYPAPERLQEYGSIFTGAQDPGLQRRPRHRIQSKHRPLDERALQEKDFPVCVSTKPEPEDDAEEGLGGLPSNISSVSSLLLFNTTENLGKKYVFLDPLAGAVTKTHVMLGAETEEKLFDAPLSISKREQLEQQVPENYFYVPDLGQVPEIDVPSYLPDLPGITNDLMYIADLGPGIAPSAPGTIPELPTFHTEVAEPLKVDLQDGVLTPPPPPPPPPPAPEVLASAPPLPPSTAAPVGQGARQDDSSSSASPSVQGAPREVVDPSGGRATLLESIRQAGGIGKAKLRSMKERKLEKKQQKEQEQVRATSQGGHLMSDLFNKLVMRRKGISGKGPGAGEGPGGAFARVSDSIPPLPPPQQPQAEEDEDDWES
UniProt Q6VEQ5: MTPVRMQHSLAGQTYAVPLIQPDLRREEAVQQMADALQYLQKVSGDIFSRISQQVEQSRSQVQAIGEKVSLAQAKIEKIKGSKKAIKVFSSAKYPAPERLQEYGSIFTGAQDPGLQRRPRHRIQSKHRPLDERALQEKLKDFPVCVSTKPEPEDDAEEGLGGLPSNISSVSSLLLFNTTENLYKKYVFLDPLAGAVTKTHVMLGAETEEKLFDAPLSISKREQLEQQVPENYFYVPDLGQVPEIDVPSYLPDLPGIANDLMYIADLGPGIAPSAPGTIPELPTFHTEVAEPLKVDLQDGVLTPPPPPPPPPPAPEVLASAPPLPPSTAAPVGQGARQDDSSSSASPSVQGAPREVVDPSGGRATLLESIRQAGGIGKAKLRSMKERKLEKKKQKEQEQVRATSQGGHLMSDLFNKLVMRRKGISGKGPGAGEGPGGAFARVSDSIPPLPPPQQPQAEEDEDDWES
UniProt V9HW75, whole entry, looked up: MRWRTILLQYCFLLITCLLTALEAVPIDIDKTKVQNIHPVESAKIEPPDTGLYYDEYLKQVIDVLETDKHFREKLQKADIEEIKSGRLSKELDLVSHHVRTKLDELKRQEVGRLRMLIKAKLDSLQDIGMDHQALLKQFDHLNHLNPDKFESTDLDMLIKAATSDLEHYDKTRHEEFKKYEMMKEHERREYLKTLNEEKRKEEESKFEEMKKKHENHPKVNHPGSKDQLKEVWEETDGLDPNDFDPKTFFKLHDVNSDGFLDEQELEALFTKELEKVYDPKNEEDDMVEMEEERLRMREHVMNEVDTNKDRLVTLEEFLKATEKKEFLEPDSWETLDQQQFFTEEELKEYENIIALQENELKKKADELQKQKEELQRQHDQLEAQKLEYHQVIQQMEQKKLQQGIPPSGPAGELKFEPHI

Compound in this assay: Nc1ncnc2c1ncn2[C@@H]1O[C@H](COP(=O)(O)OP(=O)(O)OP(=O)(O)O)[C@@H](O)[C@H]1O [adenosine triphosphate]
As to the kind of experiment: NP40-soluble protein abundance relative to vehicle (solubility fold change) (ratio); higher = more soluble protein in presence of ATP. The gist of the method: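 Crude Jurkat lysate, prepared by Dounce homogenisation, was exposed to eight concentrations from 0.1 to 10 mM for 10 min at room temperature and then 3 min at 37 °C. Solubilisation used 0.8% NP40 with benzonase for 60 min at 4 °C, followed by ultracentrifugation and TMT labelling of the supernatant for LC-MS/MS. After vsn normalisation of intensities, each value is the fold change against the detergent-processed vehicle within each replicate, across three independent experiments.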

± gives the standard deviation of the averaged measurements. Only a part is listed here, and it is no random draw. Most entries show no effect beyond the scatter of the controls.

For the target “A0A0A6YYG7|Q6IBW4 and related entries (UniProt Q6IBW4)”, the NP40-soluble protein abundance reads like this: (concentration: 0.1mM) 1 ± 0.057; (concentration: 0.5mM) 1.04 ± 0.068.
With A0A087WUH0|P28715 (UniProt P28715), the NP40-soluble protein abundance reads like this: (concentration: 0.1mM) 1.01 ± 0.03; (concentration: 0.5mM) 1 ± 0.059.
The like results for “A0A075B7F8|A8CG34 and related entries (UniProt Q96HA1+A8CG34)” were, in that order, 0.944 ± 0.093 and 0.91 ± 0.038.
The like results for “A0A087X1A8|D3VVH9 and related entries (UniProt P54252)” were, in that order, 0.995 ± 0.019 and 0.994 ± 0.011.
The like results for A0A087WZN1|O43837 (UniProt O43837) were, in that order, 1.02 ± 0.09 and 1.04 ± 0.043.
For “A0A087WYS9|Q15526 and related entries (UniProt Q15526)”, the NP40-soluble protein abundance by setting is: (concentration: 0.1mM) 1.01 ± 0.078; (concentration: 0.5mM) 1.01 ± 0.07.
For A0A0D9SG07|Q9H4G0-4 (UniProt Q9H4G0), the NP40-soluble protein abundance was 0.999 ± 0.068 (concentration: 0.1mM) and 0.957 ± 0.044 (concentration: 0.5mM).
As to “A0A0A6YYI3|A0A0B4J1V8|Q9NQ55 and related entries (UniProt Q9NQ55)”, the NP40-soluble protein abundance reads like this: (concentration: 0.1mM) 0.997 ± 0.038; (concentration: 0.5mM) 1.03 ± 0.021.
The like results for “A0A087WU62|A0A087X2D5|A0A0G2JMS5|Q9BRJ2 (UniProt Q9BRJ2)” were, in that order, 1.02 ± 0.084 and 1.04 ± 0.11.
As for “A0A0A0MTJ9|A0A0R4J2G3|Q6PIU2 and related entries (UniProt Q6PIU2)”, the NP40-soluble protein abundance (concentration: 0.1mM) is 1 ± 0.053 and the NP40-soluble protein abundance (concentration: 0.5mM) amounted to 0.996 ± 0.045.
“A0A087X0R6|Q9UMY4 and related entries (UniProt Q9UMY4)”: the NP40-soluble protein abundance turned out to be 0.962 ± 0.061 (concentration: 0.1mM) and 0.954 ± 0.063 (concentration: 0.5mM).
The like results for “A0A0C4DG17|C9J9K3 and related entries (UniProt P08865)” were, in that order, 0.928 ± 0.11 and 0.905 ± 0.11.
The like results for A0A087WVP1|Q14517 (UniProt Q14517) were, in that order, 1.01 ± 0.037 and 1.02 ± 0.048.
The like results for A0A087WW77|Q15334 (UniProt Q15334) were, in that order, 1.06 ± 0.025 and 1.04 ± 0.04.
For “A0A0C4DFL8|F5GX28 and related entries (UniProt O94953)”, the NP40-soluble protein abundance is 0.979 ± 0.076 (concentration: 0.1mM) and 1.03 ± 0.094 (concentration: 0.5mM).
The like results for “A0A0B4J2F8|A6NFM0 and related entries (UniProt Q9GZM3+Q9H1A7+P52435+F6S314+E2QRJ6+A6NFM0)” were, in that order, 0.894 ± 0.092 and 0.94 ± 0.11.
The like results for “A0A087WW14|Q0VDG4 and related entries (UniProt Q0VDG4)” were, in that order, 1.1 ± 0.19 and 1.06 ± 0.14.
In the case of “A0A087WVP4|A0A087X1R1|P53814 and related entries (UniProt P53814)”, the NP40-soluble protein abundance reads like this: (concentration: 0.1mM) 1 ± 0.074; (concentration: 0.5mM) 1.03 ± 0.14.
The like results for A0A087X0N3 (UniProt Q96MY1) were, in that order, 0.927 ± 0.025 and 0.943 ± 0.025.
A0A087WYP2|Q8IZQ5 (UniProt Q8IZQ5): the NP40-soluble protein abundance (concentration: 0.1mM) was found to be 0.995 ± 0.059 and the NP40-soluble protein abundance (concentration: 0.5mM) is 1.04 ± 0.023.
The like results for “A0A087WZ97|A0A087WZK6|A0A087X2C2|Q5T7M9 (UniProt Q5T7M9)” were, in that order, 0.983 ± 0.064 and 0.938 ± 0.062.
The like results for “A0A087WTU9|A0A087WZY3|Q8TCU4 and related entries (UniProt Q8TCU4)” were, in that order, 0.996 ± 0.096 and 0.872 ± 0.12.
The like results for “A0A0A0MS70|A0A0A0MST0|H0Y4G9 and related entries (UniProt Q99836)” were, in that order, 1.02 ± 0.041 and 0.983 ± 0.089.
In the case of “A0A096LP75|C4AMC7 and related entries (UniProt Q6VEQ5+C4AMC7)”, the NP40-soluble protein abundance runs as follows: (concentration: 0.1mM) 0.932 ± 0.034; (concentration: 0.5mM) 0.8573 ± 0.0038.
The like results for A0A087WSV8|V9HW75 (UniProt V9HW75) were, in that order, 0.993 ± 0.072 and 0.915 ± 0.13.
Regarding A0A087WXN9|Q765P7 (UniProt Q765P7), the NP40-soluble protein abundance (concentration: 0.1mM) was found to be 1.07 ± 0.098 and the NP40-soluble protein abundance (concentration: 0.5mM) worked out at 1.01 ± 0.043.
The like results for “A0A087WXM6|A0A0A6YYL6|J3KRX5 and related entries (UniProt P18621)” were, in that order, 0.932 ± 0.14 and 0.934 ± 0.15.
